The target of assay [1] is Mouse-TrKA on the surface of HEK293T-MouseTrKA cells (mouse) (UniProt Q3UFB7). The assay is described as follows: flow cytometry on HEK293T-MouseTrkA cells.
The target in assay [2] is Human-TrKA receptor on the surface of HEK293T-HumanTrKA cells (human) (UniProt P04629). The assay is described as follows: flow cytometry on HEK293T-HumanTrkA cells.

Amino acid sequences for entries named in this document (tags omitted). Residues count along the entry.
UniProt Q3UFB7, residues 34-799: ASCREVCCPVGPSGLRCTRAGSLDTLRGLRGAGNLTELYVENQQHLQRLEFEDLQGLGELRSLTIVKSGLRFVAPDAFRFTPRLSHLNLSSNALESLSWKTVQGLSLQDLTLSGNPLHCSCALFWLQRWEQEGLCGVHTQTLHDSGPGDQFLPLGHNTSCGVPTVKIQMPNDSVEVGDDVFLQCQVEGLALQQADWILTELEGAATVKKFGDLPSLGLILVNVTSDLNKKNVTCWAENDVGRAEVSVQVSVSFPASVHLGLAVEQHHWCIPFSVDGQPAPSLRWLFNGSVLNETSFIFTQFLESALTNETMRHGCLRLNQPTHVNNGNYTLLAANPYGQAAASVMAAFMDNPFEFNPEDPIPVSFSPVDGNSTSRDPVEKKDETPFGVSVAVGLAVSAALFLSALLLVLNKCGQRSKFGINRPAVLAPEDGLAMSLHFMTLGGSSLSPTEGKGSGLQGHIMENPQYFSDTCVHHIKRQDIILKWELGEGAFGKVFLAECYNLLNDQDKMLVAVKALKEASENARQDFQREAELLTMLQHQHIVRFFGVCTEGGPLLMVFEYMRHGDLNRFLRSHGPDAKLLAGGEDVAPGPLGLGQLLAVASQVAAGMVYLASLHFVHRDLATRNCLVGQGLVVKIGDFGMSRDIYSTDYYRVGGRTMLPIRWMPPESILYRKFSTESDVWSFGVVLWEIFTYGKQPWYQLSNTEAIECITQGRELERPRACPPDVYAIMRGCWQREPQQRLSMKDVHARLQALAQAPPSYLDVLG
UniProt P04629, residues 33-796: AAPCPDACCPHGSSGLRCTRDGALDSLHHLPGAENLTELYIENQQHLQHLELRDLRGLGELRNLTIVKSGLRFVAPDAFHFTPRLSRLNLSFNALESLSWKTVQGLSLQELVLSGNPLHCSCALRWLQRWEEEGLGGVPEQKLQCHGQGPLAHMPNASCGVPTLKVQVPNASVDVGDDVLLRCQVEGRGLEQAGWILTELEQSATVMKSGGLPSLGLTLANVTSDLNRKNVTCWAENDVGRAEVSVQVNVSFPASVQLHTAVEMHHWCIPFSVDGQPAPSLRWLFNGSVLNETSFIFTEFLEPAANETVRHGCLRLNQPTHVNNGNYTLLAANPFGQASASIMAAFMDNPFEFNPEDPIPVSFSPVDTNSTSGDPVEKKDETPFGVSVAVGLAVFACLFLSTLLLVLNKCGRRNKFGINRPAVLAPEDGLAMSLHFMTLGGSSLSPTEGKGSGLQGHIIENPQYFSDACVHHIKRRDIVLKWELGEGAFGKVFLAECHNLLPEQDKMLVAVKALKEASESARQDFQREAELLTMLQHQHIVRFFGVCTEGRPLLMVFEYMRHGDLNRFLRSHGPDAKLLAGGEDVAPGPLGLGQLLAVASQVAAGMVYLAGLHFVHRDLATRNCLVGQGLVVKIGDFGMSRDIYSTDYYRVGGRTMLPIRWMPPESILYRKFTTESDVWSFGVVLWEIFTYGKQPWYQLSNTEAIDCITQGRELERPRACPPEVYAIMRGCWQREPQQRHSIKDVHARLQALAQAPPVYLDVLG

These are yes or no findings as the source states them, for the method shown. Some results given as binding are weak or reduced against the parent protein; the word gives no strength.

B1: humanized anti-TrkA monoclonal antibody H1L1-IgG4 (antibody)
heavy: EVQLLESGGGLVQPGGSLKLSCKASGYAFTNYWLGWMKQRPGHGLEWIGDFYPRTGNTFYNENFKGKVTLTADKSSNTAYMQLSSLTSEDSAVYLCARAGTGFDYWGQGTTLTVSSASTKGPSVFPLAPCSRSTSESTAALGCLVKDYFPEPVTVSWNSGALTSGVHTFPAVLQSSGLYSLSSVVTVPSSSLGTKTYTCNVDHKPSNTKVDKRVESKYGPPCPPCPAPEAAGGPSVFLFPPKPKDTLMISRTPEVTCVVVDVSQEDPEVQFNWYVDGVEVHNAKTKPREEQFNSTYRVVSVLTVLHQDWLNGKEYKCKVSNKGLPSSIEKTISKAKGQPREPQVYTLPPSQEEMTKNQVSLTCLVKGFYPSDIAVEWESNGQPENNYKTTPPVLDSDGSFFLYSKLTVDKSRWQEGNVFSCSVMHEALHNHYTQKSLSLSLG
light: EIVMTQSPATLSLSVGERVTLSCKASENVGGYVSWYQQKPDQSPKLLIYGASSRHTGVPDRFTGSGSETDFTLTISSVQAEDLAAYHCGQNYIYPFTFGGGTKLEIKRTVAAPSVFIFPPSDEQLKSGTASVVCLLNNFYPREAKVQWKVDNALQSGNSQESVTEQDSKDSTYSLSSTLTLSKADYEKHKVYACEVTHQGLSSPVTKSFNRGEC
As to B1, the binding entry in assay [1] was “binds”.

B2: human-mouse chimeric anti-TrkA monoclonal antibody 23E12 (H0L0-IgG4) (antibody)
heavy: QVQLQQSGAELVRPGTSVKISCKASGYAFTNYWLGWMKQRPGHGLEWIGDFYPRTGNTFYNENFKGKVTLTADKSSNTAYMQLSSLTSEDSAVYLCARAGTGFDYWGQGTTLTVSSASTKGPSVFPLAPCSRSTSESTAALGCLVKDYFPEPVTVSWNSGALTSGVHTFPAVLQSSGLYSLSSVVTVPSSSLGTKTYTCNVDHKPSNTKVDKRVESKYGPPCPPCPAPEAAGGPSVFLFPPKPKDTLMISRTPEVTCVVVDVSQEDPEVQFNWYVDGVEVHNAKTKPREEQFNSTYRVVSVLTVLHQDWLNGKEYKCKVSNKGLPSSIEKTISKAKGQPREPQVYTLPPSQEEMTKNQVSLTCLVKGFYPSDIAVEWESNGQPENNYKTTPPVLDSDGSFFLYSKLTVDKSRWQEGNVFSCSVMHEALHNHYTQKSLSLSLG
light: SIVMTQSPKSMSMSVGERVTLSCKASENVGGYVSWYQQKPDQSPKLLIYGASSRHTGVPDRFTGSGSETDFTLTISSVQAEDLAAYHCGQNYIYPFTFGGGTKLEIKRTVAAPSVFIFPPSDEQLKSGTASVVCLLNNFYPREAKVQWKVDNALQSGNSQESVTEQDSKDSTYSLSSTLTLSKADYEKHKVYACEVTHQGLSSPVTKSFNRGEC
Turning to B2, the binding entry in assay [1] and in assay [2] was “binds” in each case.

B3: humanized anti-TrkA monoclonal antibody H3L1-IgG4 (antibody, V domains shown)
VH: EVQLLESGGGLVQPGGSLKLSCKASGYAFTNYWLGWMKQRPGHGLEWIGDFYPRTGNTFYNENFKGQVTMSVDKSITTAYLQWNSLKASDTAMYYCARAGTGFDYWGQGTTLTVSS
VL: EIVMTQSPATLSLSVGERVTLSCKASENVGGYVSWYQQKPDQSPKLLIYGASSRHTGVPDRFTGSGSETDFTLTISSVQAEDLAAYHCGQNYIYPFTFGGGTKLEIKR
With B3, the binding result in assay [1] and in assay [2] was “binds” in each case.

B4: humanized anti-TrkA monoclonal antibody H3L2-IgG4 (antibody, V domains shown)
VH: EVQLLESGGGLVQPGGSLKLSCKASGYAFTNYWLGWMKQRPGHGLEWIGDFYPRTGNTFYNENFKGQVTMSVDKSITTAYLQWNSLKASDTAMYYCARAGTGFDYWGQGTTLTVSS
VL: EIVMTQSPATLSLSVGERVTLSCKASENVGGYVSWYQQKPDQSPKLLIYGASSRATGVPDRFTGSGSETDFTLTISSVQAEDLAAYHCGQNYIYPFTFGGGTKLEIKR
As to B4, the binding result in assay [1] and in assay [2] was “binds” in each case.

Values taken from US20230357411A1.
